Data: EP0969100A1, “METHOD FOR SCREENING HEAT SHOCK PROTEIN EXPRESSION INDUCTION REGULATORS” (HSP Research Institute, Inc., priority 1997, dated 1999)
At least one structure is not confirmed: it was looked up by name or label, or the drawing left a doubt.

Key:
Assay type in all cases: cell-based, human
endogenous HSP70 [1] = assay: Western blotting of intracellular HSP70 accumulation without heat shock in HeLa-198 strain; conditions: 10 µM, 1 to 11 hours, HS(-), Figure 7
endogenous HSP70 [2] = assay: Western blotting of intracellular HSP70 accumulation after heat shock in HeLa-198 strain; conditions: 10 µM, heat shock at 42°C for 2 hours, 1 to 11 hours, HS(+), Figure 8
Description: The action of SR-1040 on the induction of expression of endogenous HSP70 was studied on the mRNA level and the protein level by means of Northern blotting and Western blotting, respectively. The action of SR-2125 on the induction of expression of endogenous HSP70 was also studied on the protein level in the same manner by means of Western blotting. The HeLa-198 strain was inoculated in a 10 cm culture dish at 1.1 × 10^6 cells/cm^2 and cultured for 48 hours in the same manner as in Example 5, and then a solution of SR-1040 or SR-2125 of Example 5 was supplemented so as to have a final concentration of 50 µM. Thereafter, the mixture was cultured at 37°C for additional 1 hour. […] In addition, after applying heat shock at 42°C for 2 hours followed by recovery-culturing at 37°C for 2 hours, the resulting cell extract was subjected to SDS-polyacrylamide gel electrophoresis followed by Western blotting using an anti-HSP70 antibody (manufactured by StressGen) to quantity the intracellular HSP70 accumulation (Figure 2 and Figure 3).
The action of SR-2297 on the induction of endogenous HSP70 expression by heat shock was studied in the same manner as in Example 11. […] Thereafter, Western blotting was performed using an anti-HSP70 antibody (manufactured by StressGen) to quantify the amounts of intracellular HSP70 accumulation (Figure 8).

HSP70 promoter = assay: HSP70 promoter-luciferase reporter assay in HeLa-198 strain without heat shock (37°C); conditions: 10 µM, 37°C for 5 hours, no heat shock, vs DMSO control

## CC(C)Cc1ccc(C(=O)/C=C/c2cccc([N+](=O)[O-])c2)cc1 [SR-2297, 1-[4-(2-methylpropyl)phenyl]-3-(3-nitrophenyl)-2-propen-1-one]
Endogenous HSP70 [1]
  expression of endogenous HSP70: marked induction action
Endogenous HSP70 [2]
  induction of expression of endogenous HSP70 by heat shock: marked enhancing effect
HSP70 promoter
  increase in expression of the luciferase activity: about three times
